No constants are given. Whether binding was seen depends on the method and setting. Binding seen in cells or lysates may run through a third protein. Some entries that bind do so weakly or less than the wild type.

The chains behind the UniProt entries cited, without tags or fusion partners.
UniProt Q91YH6: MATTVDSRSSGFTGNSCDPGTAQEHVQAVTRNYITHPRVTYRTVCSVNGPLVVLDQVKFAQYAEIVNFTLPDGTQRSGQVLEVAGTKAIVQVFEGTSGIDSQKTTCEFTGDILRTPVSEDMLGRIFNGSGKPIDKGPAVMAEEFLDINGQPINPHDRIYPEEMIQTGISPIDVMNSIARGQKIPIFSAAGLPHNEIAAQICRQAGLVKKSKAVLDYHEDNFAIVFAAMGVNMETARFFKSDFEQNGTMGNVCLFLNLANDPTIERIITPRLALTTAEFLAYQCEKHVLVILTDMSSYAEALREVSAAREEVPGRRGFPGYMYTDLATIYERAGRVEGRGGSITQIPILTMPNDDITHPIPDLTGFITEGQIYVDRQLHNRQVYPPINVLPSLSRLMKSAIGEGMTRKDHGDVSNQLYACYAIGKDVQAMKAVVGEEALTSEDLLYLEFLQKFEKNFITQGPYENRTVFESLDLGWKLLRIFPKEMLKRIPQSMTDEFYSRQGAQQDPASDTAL

For the experiment, the target named is vATPase subunit B1 (mouse (endogenous in inguinal fat)) (UniProt Q91YH6). The experiment is described as follows: proximity ligation.

B1: NCOA7 (protein, UniProt Q6DFV7 1-943)
chain: MDTKEEKKEQKERKQSYFARLKKKKQAKQNAEIVSAASSKSRSGKDDANSDILEQDKFNVTAEGDHSTDDKKKRKSNQLKEIRRTELKRYYSVDDNQNKTHDKKEKKMMVQKPQGTMEYTAGSQDTLNSVALKFNVTPNKLVELNKLFTHTIVPGQVLFVPDANISSSTIQLSSSTPGATVSPSSSDAEYDKLPDADLARKALKPIERVLSSTSEEDEPGVVKFLKMNCRYFTDGKGVVGGVMIVTPNNIMFDPHKSDPLVIENGCEEYGLICPMEEVVSIALYSDISHMKIKDALPSDLPRDLCPLYRPGEWEDLASEKDINPFSKFKSINKEKRQQNGERTLALDAKSVRSPEESTERTCTRIEPPDNSELWKLKNLQSSRGTTSESPSVTQLSMRAALEPTAKENCLLKGDEDFVDLEELSSQPESGINKGDATKECLSYDQKKDGPHTVMSAKKGHVQSAQEVMGPESDTELKGALDLETAEKQDEAPEVDKHSGSPENLGESTLNIHEDLDKIKLIEFYLNKNKEGSQLLENVQKSELSDRKSIEPGGIDITLSSSLPQAGDSPPEDNKEPGTLWVKGGETLPLKLDPSAEETVINNKEVLDSLGSSLDKMCHSAQMDNKSEIQLWLLKRIQVPIEDILPSKEEKSKTPPMFLCIKVGKPMRKSFASHTATMVQQYSKRRKQPEYWFAVPRERVDHLYTFFVQWSPDVYGKDAKEQGFVVVEKEELNMIDNFFSEPTTKSWEIITVEEAKRRKSTCSYYEEEEEEEEGLPILQPHSALLENMHIEQLARRLPARVQGYPWRLAYSTLEHGTSLKTLYRKSASLDSPVLLVIKDMDNQIFGAYATHPFKFSDHYYGTGETFLYTFSPNFKVFKWSGENSYFINGDISSLELGGGGGRFGLWLDADLYHGRSNSCSTFNNDILSKKEDFIVQDLEVWTFE
Turning to B1, the binding entry is listed as “binds”.

(Values after article doi:10.64898/2025.12.06.692764.)
